# Measured values: the supplement of paper PMC4604168 (melanoma cell lines)
# The other results are listed elsewhere or left out. Single values are uncertain, as repeats are few or missing.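 Cells were imaged in 1,536-well plates, and nuclei stained with an antibody against cleaved PARP were counted against all DNA-stained nuclei to give the apoptosis fraction. Screening doses were chosen to leave most cells alive, and resting and induced cleaved-PARP levels differ strongly between cell lines.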
# Assays:
# Test in all cases: cleaved PARP positive nuclei fraction relative to DMSO control; melanoma cells; higher = more apoptosis
# Conditions in all cases: library dose: low library concentration; 72 h
# MZ2-MEL = system: MZ2-MEL
# MeWo = system: MeWo
# RPMI7951 = system: RPMI7951
# RVH-421 = system: RVH-421
# SkMel28 = system: SkMel28
# SkMel2 = system: SkMel2
# SkMel30 = system: SkMel30
# SkMel5 = system: SkMel5
# UACC257 = system: UACC257
# UACC62 = system: UACC62
# WM115 = system: WM115
# WM1716 = system: WM1716
# WM1745 = system: WM1745
# WM3526 = system: WM3526
# WM3619 = system: WM3619
# WM451Lu = system: WM451Lu
Structure (SMILES),cleaved PARP positive nuclei fraction (MZ2-MEL) [%],cleaved PARP positive nuclei fraction (MeWo) [%],cleaved PARP positive nuclei fraction (RPMI7951) [%],cleaved PARP positive nuclei fraction (RVH-421) [%],cleaved PARP positive nuclei fraction (SkMel28) [%],cleaved PARP positive nuclei fraction (SkMel2) [%],cleaved PARP positive nuclei fraction (SkMel30) [%],cleaved PARP positive nuclei fraction (SkMel5) [%],cleaved PARP positive nuclei fraction (UACC257) [%],cleaved PARP positive nuclei fraction (UACC62) [%],cleaved PARP positive nuclei fraction (WM115) [%],cleaved PARP positive nuclei fraction (WM1716) [%],cleaved PARP positive nuclei fraction (WM1745) [%],cleaved PARP positive nuclei fraction (WM3526) [%],cleaved PARP positive nuclei fraction (WM3619) [%],cleaved PARP positive nuclei fraction (WM451Lu) [%]
"O=C(O)c1ccc2c(c1)nc(Nc1cccc(Cl)c1)c1ccncc12 + CN(C)S(=O)(=O)c1ccc2c(c1)/C(=C/c1cc3c([nH]1)CCCC3)C(=O)N2 [SU6656] (first compound 0.4 µM, partner dose 0.4 µM)",177,121,96.8,49.1,781,49.5,69,82.9,40.2,76.6,332,103,122,465,93.9,85.7
"Nc1ncn([C@H]2C[C@H](O)[C@@H](CO)O2)c(=O)n1 [decitabine] + Oc1nc(-c2ccc(C(F)(F)F)cc2)nc2c1CSCC2 [XAV939] (first compound 0.1 µM, partner dose 2 µM)",121,115,58.3,23.1,106,115,121,86.2,255,215,122,236,107,62.5,108,177
"C=C(c1ccc(C(=O)O)cc1)c1cc2c(cc1C)C(C)(C)CCC2(C)C [Bexarotene] + COc1cc(Nc2ncc(F)c(Nc3ccc4c(n3)NC(=O)C(C)(C)O4)n2)cc(OC)c1OC [Tamatinib] (first compound 2 µM, partner dose 0.4 µM)",114,263,109,61,96.5,164,70.1,241,73.2,112,62.1,123,124,159,101,70.9
"Nc1nc(F)nc2c1ncn2[C@@H]1O[C@H](CO)[C@@H](O)[C@@H]1O [fludarabine] + c1cc(-c2cnn3cc(-c4ccc(OCCN5CCCCC5)cc4)cnc23)ccn1 [Dorsomorphin] (first compound 0.2 µM, partner dose 0.4 µM)",144,1800,111,38.4,188,2180,3650,298,200,95.8,108,96.7,88.3,355,96.7,1280
"Nc1nc(F)nc2c1ncn2[C@@H]1O[C@H](CO)[C@@H](O)[C@@H]1O [fludarabine] + COC(=O)c1sccc1S(=O)(=O)Nc1ccc(Nc2ccccc2)cc1OC [GSK0660] (first compound 0.2 µM, partner dose 1 µM)",122,285,1180,91,123,1780,1360,255,82.2,77.9,105,66.7,80.2,801,90.8,148
"CNC(=O)c1cc(Oc2ccc(NC(=O)Nc3ccc(Cl)c(C(F)(F)F)c3)cc2)ccn1 [sorafenib] + Cc1ccc(NC(=O)c2cccc(N(C)C)c2)cc1NC(=O)c1ccc(O)cc1 [ZM336372] (first compound 0.4 µM, partner dose 2 µM)",137,121,106,82.4,38.3,94.6,415,46.1,33.5,23.7,18.6,142,112,74.4,89.2,48.8
"O=C(O)[C@@H]1[O][Sb](=[O])([O][Sb]2(=[O])[O][C@H]([C@H](O)CO)[C@H](O)[C@H](C(=O)O)[O]2)[O][C@H]([C@H](O)CO)[C@@H]1O (some centres undefined) [stibogluconate] + COc1ccc2c(c1)CCC1C2CCC2(C)C(NCCCCCCN3C(=O)C=CC3=O)CCC12 [U73122] (first compound 2 µM, partner dose 0.4 µM)",31.7,93.9,108,94.9,36.1,86.8,37.8,174,120,65.8,91.4,88,94.6,46.3,85.7,42.7
"Nc1ccn([C@@H]2O[C@H](CO)[C@@H](O)C2(F)F)c(=O)n1 [gemcitabine] + CCN(CC)CCCCNc1ncc2cc(-c3cc(OC)cc(OC)c3)c(NC(=O)NC(C)(C)C)nc2n1 [PD173074] (first compound 0.0004 µM, partner dose 0.1 µM)",145,34.1,66.7,136,107,33.7,24.9,73.1,21.3,129,54.6,24.1,98.4,55.9,128,167
"Cc1cc(Nc2cc(N3CCN(C)CC3)nc(/C=C/c3ccccc3)n2)n[nH]1 + O=C(Nc1cccc(Cl)c1)Nc1ncc(CCNc2ncnc3ccsc23)s1 [SNS314] (first compound 0.04 µM, partner dose 0.0008 µM)",66.9,150,53.3,85.3,76.7,116,72,72.1,141,28.3,154,178,107,63.9,83,87.4
"CNC(=O)c1cc(Oc2ccc(NC(=O)Nc3ccc(Cl)c(C(F)(F)F)c3)cc2)ccn1 [sorafenib] + O=C(O)C(=O)Nc1sc2c(c1C(=O)O)CCNC2 [TCS401] (first compound 0.4 µM, partner dose 1.66667 µM)",87,34.1,164,142,98.9,107,246,75.9,23.8,479,35.1,436,95.2,81.2,98.5,32
"Cn1c(=O)n(-c2ccc(C(C)(C)C#N)cc2)c2c3cc(-c4cnc5ccccc5c4)ccc3ncc21 + O=C(O)c1ccc(-c2c[nH]c3ncc(-c4ccccc4)cc23)cc1C1CCCC1 [GSK650394] (first compound 0.004 µM, partner dose 0.16 µM)",221,63.7,72.3,30.8,366,130,70.9,30.7,97,258,41.9,90.4,98.5,181,114,182
"C[C@@H](Oc1cc(-c2cnn(C3CCNCC3)c2)cnc1N)c1c(Cl)ccc(F)c1Cl [Crizotinib] + O=C(O)c1ccc(-c2c[nH]c3ncc(-c4ccccc4)cc23)cc1C1CCCC1 [GSK650394] (first compound 0.2 µM, partner dose 0.16 µM)",82.6,58.8,88.5,84.4,42.8,89.4,133,98.1,44,68.9,42.6,61,95.4,186,87.1,68.8
"CCCS(=O)(=O)Nc1ccc(F)c(C(=O)c2c[nH]c3ncc(Cl)cc23)c1F + Cn1cc(/C=C2\C(=O)Nc3cccnc32)c2ccccc21 [GW441756] (first compound 0.08 µM, partner dose 0.4 µM)",40.4,135,70.9,102,101,24.9,57.6,75,245,304,64,89.8,95.8,99,108,93.7
"Nc1ncn([C@H]2C[C@H](O)[C@@H](CO)O2)c(=O)n1 [decitabine] + CN(C)S(=O)(=O)c1ccc2c(c1)/C(=C/c1cc3c([nH]1)CCCC3)C(=O)N2 [SU6656] (first compound 0.1 µM, partner dose 0.4 µM)",182,148,47.3,44.1,42.7,39.3,123,32.4,85,168,83.7,53,110,70.4,115,351
"C[C@@H](Oc1cc(-c2cnn(C3CCNCC3)c2)cnc1N)c1c(Cl)ccc(F)c1Cl [Crizotinib] + COc1ccc(COc2ccc(Cc3cnc(N)nc3N)cc2OC)cc1 [GW2580] (first compound 0.2 µM, partner dose 1 µM)",33.9,90.9,65.9,126,179,19.2,28.3,168,217,83.5,143,109,86.7,473,102,140
"CN1CCN(c2ccc3nc(-c4c(N)c5c(F)cccc5[nH]c4=O)[nH]c3c2)CC1 [Dovitinib] + COc1ccc(-c2ccc3c(N4CCOCC4)nc(N4C[C@@H](C)O[C@@H](C)C4)nc3n2)cc1CO [KU0063794] (first compound 0.1 µM, partner dose 0.02 µM)",140,94.2,129,79.1,75.4,69.2,46.1,136,115,85.2,67.2,44.9,88.3,60.3,77.9,136
"CS(=O)(=O)CCNCc1ccc(-c2ccc3ncnc(Nc4ccc(OCc5cccc(F)c5)c(Cl)c4)c3c2)o1 [lapatinib] + Cn1cncc1[C@@](N)(c1ccc(Cl)cc1)c1ccc2c(c1)c(-c1cccc(Cl)c1)cc(=O)n2C [tipifarnib] (first compound 0.8 µM, partner dose 0.01 µM)",86.7,113,141,113,135,116,62.4,40.6,166,186,136,170,84.7,60.1,80.9,94.2
"CNC(=O)c1cc(Oc2ccc(NC(=O)Nc3ccc(Cl)c(C(F)(F)F)c3)cc2)ccn1 [sorafenib] + Cn1cncc1[C@@](N)(c1ccc(Cl)cc1)c1ccc2c(c1)c(-c1cccc(Cl)c1)cc(=O)n2C [tipifarnib] (first compound 0.4 µM, partner dose 0.01 µM)",104,111,49,102,85.4,156,165,59.2,156,125,85,31,100,1180,83.5,381
"Nc1ccn([C@@H]2O[C@H](CO)[C@@H](O)C2(F)F)c(=O)n1 [gemcitabine] + N#Cc1c(O)c2c(-c3ccc(-c4ccccc4O)cc3)csc2[nH]c1=O [A769662] (first compound 0.0004 µM, partner dose 2 µM)",145,81.1,25,87.5,280,95.6,177,64.2,205,72.3,101,53.5,104,81.3,143,29.4

# In another format: entries from further up
Structure (SMILES)	cleaved PARP positive nuclei fraction (MZ2-MEL) [%]	cleaved PARP positive nuclei fraction (MeWo) [%]	cleaved PARP positive nuclei fraction (RPMI7951) [%]	cleaved PARP positive nuclei fraction (RVH-421) [%]	cleaved PARP positive nuclei fraction (SkMel28) [%]	cleaved PARP positive nuclei fraction (SkMel2) [%]	cleaved PARP positive nuclei fraction (SkMel30) [%]	cleaved PARP positive nuclei fraction (SkMel5) [%]	cleaved PARP positive nuclei fraction (UACC257) [%]	cleaved PARP positive nuclei fraction (UACC62) [%]	cleaved PARP positive nuclei fraction (WM115) [%]	cleaved PARP positive nuclei fraction (WM1716) [%]	cleaved PARP positive nuclei fraction (WM1745) [%]	cleaved PARP positive nuclei fraction (WM3526) [%]	cleaved PARP positive nuclei fraction (WM3619) [%]	cleaved PARP positive nuclei fraction (WM451Lu) [%]
CNC(=O)c1cc(Oc2ccc(NC(=O)Nc3ccc(Cl)c(C(F)(F)F)c3)cc2)ccn1 [sorafenib] + Cc1ccc(NC(=O)c2cccc(N(C)C)c2)cc1NC(=O)c1ccc(O)cc1 [ZM336372] (first compound 0.4 µM, partner dose 2 µM)	137	121	106	82.4	38.3	94.6	415	46.1	33.5	23.7	18.6	142	112	74.4	89.2	48.8
Nc1ccn([C@@H]2O[C@H](CO)[C@@H](O)C2(F)F)c(=O)n1 [gemcitabine] + CCN(CC)CCCCNc1ncc2cc(-c3cc(OC)cc(OC)c3)c(NC(=O)NC(C)(C)C)nc2n1 [PD173074] (first compound 0.0004 µM, partner dose 0.1 µM)	145	34.1	66.7	136	107	33.7	24.9	73.1	21.3	129	54.6	24.1	98.4	55.9	128	167
CNC(=O)c1cc(Oc2ccc(NC(=O)Nc3ccc(Cl)c(C(F)(F)F)c3)cc2)ccn1 [sorafenib] + O=C(O)C(=O)Nc1sc2c(c1C(=O)O)CCNC2 [TCS401] (first compound 0.4 µM, partner dose 1.66667 µM)	87	34.1	164	142	98.9	107	246	75.9	23.8	479	35.1	436	95.2	81.2	98.5	32
C[C@@H](Oc1cc(-c2cnn(C3CCNCC3)c2)cnc1N)c1c(Cl)ccc(F)c1Cl [Crizotinib] + COc1ccc(COc2ccc(Cc3cnc(N)nc3N)cc2OC)cc1 [GW2580] (first compound 0.2 µM, partner dose 1 µM)	33.9	90.9	65.9	126	179	19.2	28.3	168	217	83.5	143	109	86.7	473	102	140
Nc1ccn([C@@H]2O[C@H](CO)[C@@H](O)C2(F)F)c(=O)n1 [gemcitabine] + N#Cc1c(O)c2c(-c3ccc(-c4ccccc4O)cc3)csc2[nH]c1=O [A769662] (first compound 0.0004 µM, partner dose 2 µM)	145	81.1	25	87.5	280	95.6	177	64.2	205	72.3	101	53.5	104	81.3	143	29.4
